Data as given in PubChem BioAssay AID1259254 (NCATS, 2017)
In all, the deposit lists about 59,000 reagents; this is a part drawn at random. In the full data, about 1,550 (2.6%) were called active. 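G2 share is only a proxy for re-replication; each gene was hit by three separate siRNAs, and active genes were retested.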 A number with no mark means an inactive call. Reagents against one gene are numbered here. Not all columns of the deposit are shown. No sequences are given here. The record does not give: the amount of reagent.

Purpose: 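Gene knock-downs that lead to re-replication, shown by excess G2 DNA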 (primary screen)
System: human HCT116 colorectal cancer cells
Reagent: single siRNA against human genes
Duration: 3 days
Read-out: 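Imaged Hoechst DNA stain sorts each cell into a cycle phase by DNA amount; per plate, G2 fraction set to 0% for non-targeting and 100% for GMNN siRNA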
Reading the numbers: G2 robust z-score and G2 cells, % of GMNN control: higher = more G2 cells, more excess DNA replication
Active means: 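An siRNA counts as active if its G2 robust z-score lies at least 5 MADs above the screen median; here such calls match roughly 38% of GMNN control or more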

AKNA #1 → G2 robust z-score = 1.47; G2 cells, % of GMNN control = 13.3
AKNA #2 → G2 robust z-score = 0.47; G2 cells, % of GMNN control = 6.27
AKNA #3 → G2 robust z-score = -0.124; G2 cells, % of GMNN control = 2.09
TTBK1 #1 → G2 robust z-score = -1.13; G2 cells, % of GMNN control = -5.01
TTBK1 #2 → G2 robust z-score = 1.91; G2 cells, % of GMNN control = 16.4
TTBK1 #3 → G2 robust z-score = -0.247; G2 cells, % of GMNN control = 1.23
HIRA #1 → G2 robust z-score = -0.0658; G2 cells, % of GMNN control = 2.5
HIRA #2 → G2 robust z-score = 4.61; G2 cells, % of GMNN control = 35.4
HIRA #3 → G2 robust z-score = 1.06; G2 cells, % of GMNN control = 10.4
PRRX2 #1 → G2 robust z-score = 0.159; G2 cells, % of GMNN control = 4.09
PRRX2 #2 → G2 robust z-score = 0.57; G2 cells, % of GMNN control = 6.98
PRRX2 #3 → G2 robust z-score = 3.81; G2 cells, % of GMNN control = 29.8
HCLS1 #1 → G2 robust z-score = 0.34; G2 cells, % of GMNN control = 5.36
HCLS1 #2 → G2 robust z-score = 0.96; G2 cells, % of GMNN control = 9.72
HCLS1 #3 → G2 robust z-score = 1.53; G2 cells, % of GMNN control = 13.7
OTC #1 → G2 robust z-score = 2.01; G2 cells, % of GMNN control = 17.1
OTC #2 → G2 robust z-score = -0.741; G2 cells, % of GMNN control = -2.25
OTC #3 → G2 robust z-score = -0.818; G2 cells, % of GMNN control = -2.79
NFAM1 #1 → G2 robust z-score = -0.369; G2 cells, % of GMNN control = 0.369
NFAM1 #2 → G2 robust z-score = 1.38; G2 cells, % of GMNN control = 12.7
NFAM1 #3 → G2 robust z-score = 0.279; G2 cells, % of GMNN control = 4.93
ILDR1 #1 → G2 robust z-score = 4.05; G2 cells, % of GMNN control = 31.5
ILDR1 #2 → G2 robust z-score = -0.318; G2 cells, % of GMNN control = 0.727
ILDR1 #3 → G2 robust z-score = -0.432; G2 cells, % of GMNN control = -0.0744
C1QL4 #1 → G2 robust z-score = 3.19; G2 cells, % of GMNN control = 25.4
C1QL4 #2 → G2 robust z-score = -0.419; G2 cells, % of GMNN control = 0.0183
C1QL4 #3 → G2 robust z-score = 0.585; G2 cells, % of GMNN control = 7.09
SESN2 #1 → G2 robust z-score = 0.294; G2 cells, % of GMNN control = 5.03
SESN2 #2 → G2 robust z-score = 1.21; G2 cells, % of GMNN control = 11.5
SESN2 #3 → G2 robust z-score = -0.491; G2 cells, % of GMNN control = -0.488

A portion of the results above, as a working copy:
SESN2 #1 → G2 robust z-score = 0.294; G2 cells, % of GMNN control = 5.03
SESN2 #2 → G2 robust z-score = 1.21; G2 cells, % of GMNN control = 11.5
